Record: PubChem BioAssay AID1508588 (Peter MacCallum Cancer Centre, 2020)
Shown is a random part of about 18,000 reagents. 790 of all reagents (4.4%) count as active. 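Calls rest on a combination of fold-change classes in drug and vehicle arms, not all shown here.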 Some reagents were tested in more than one well and are listed for each.

- Screen: 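Genome-wide search for knock-downs that heighten vemurafenib action in melanoma cells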 (primary screen)
- System: human WM266.4 melanoma cells (BRAF V600 mutant)
- Knock-down reagent: siRNA pool against human genes, 40 nM
- Duration: 96 h from transfection to read-out
- Challenge: vemurafenib 300 nM (about IC25), added 48 h after transfection, for 48 h; comparison arm got DMSO vehicle only
- Measured: 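Ratios to non-targeting siRNA for cell gain, counted as DAPI nuclei after minus before drug and averaged over two replicates, and for absorbance-read medium lactate per cell; both binned into fold-change classes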
- Reading the numbers: cell gain with vemurafenib: higher = more cell gain than with non-targeting siRNA; lactate per cell with vemurafenib: higher = more lactate made per cell
- Rule for the call: 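Enhancement is called by pairing each knock-down's vehicle-arm and drug-arm fold-change classes for viability or glycolysis; which class combinations qualify is not given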
- Meaning of the calls: active = enhances vemurafenib effect; inactive = no enhancement seen

Gene,cell gain with vemurafenib,lactate per cell with vemurafenib,Call
U2AF1 (GeneID 7307),0.07,3.64,inactive
CSF3R (GeneID 1441),0.49,1.48,inactive
BMP2 (GeneID 650),0.78,0.42,inactive
SCARA3 (GeneID 51435),0.26,0.74,inactive
C1GALT1 (GeneID 56913),0.46,1.16,inactive
SLC30A8 (GeneID 169026),1,0.58,inactive
SLC6A13 (GeneID 6540),0.34,0.1,active
NWD1 (GeneID 284434),0.27,0.62,inactive
PEAR1 (GeneID 375033),0.87,0.76,inactive
TRPV5 (GeneID 56302),0.51,0.56,inactive
TYMP (GeneID 1890),0.94,0.93,inactive
ADORA2A (GeneID 135),0.77,1.19,inactive
FOXO3 (GeneID 2309),0.7,0.9,inactive
MRPL43 (GeneID 84545),0.46,0.45,inactive
APOBEC3H (GeneID 164668),0.61,1.53,inactive
SFTPA2B (retired record) (GeneID 6436),1.17,1.25,inactive
GFRAL (GeneID 389400),0.56,0.31,inactive
TPST2 (GeneID 8459),0.18,1.12,inactive
TXNDC2 (GeneID 84203),0.42,1.37,inactive
CAPG (GeneID 822),0.32,0.6,inactive
HSCB (GeneID 150274),0.8,0.55,inactive
ZNF804B (GeneID 219578),1.03,0.6,inactive
LTO1 (GeneID 220064),0.41,1.84,inactive
B3GALT6 (GeneID 126792),0.99,0.68,inactive
GBP4 (GeneID 115361),0.57,0.64,inactive
C19orf25 (GeneID 148223),0.79,0.99,inactive
SLITRK4 (GeneID 139065),0.89,0.55,inactive
MOGAT1 (GeneID 116255),0.92,1.29,inactive
CRYGA (GeneID 1418),0.07,0.64,active
DUSP14 (GeneID 11072),0.84,0.94,inactive

Look-ups from the entries so far:
ADORA2A (GeneID 135), Call → inactive
CRYGA (GeneID 1418), lactate per cell with vemurafenib → 0.64
Under “cell gain with vemurafenib”, GFRAL (GeneID 389400) reads 0.56
LTO1 (GeneID 220064), lactate per cell with vemurafenib = 1.84
Entry of TXNDC2 (GeneID 84203) in “lactate per cell with vemurafenib”: 1.37
C19orf25 (GeneID 148223), Call = inactive

The list goes on:
Gene,cell gain with vemurafenib,lactate per cell with vemurafenib,Call
GPATCH2L (GeneID 55668),0.26,0.59,active
SCNN1G (GeneID 6340),1.01,0.84,inactive
SMPDL3A (GeneID 10924),0.9,0.6,inactive
SCRG1 (GeneID 11341),0.29,2.29,inactive
BCAS1 (GeneID 8537),0.48,1.39,inactive
OR5D16 (GeneID 390144),0.68,0.65,inactive
SPEF2 (GeneID 79925),0.85,1.02,inactive
SCIMP (GeneID 388325),0.31,1.53,inactive
HSD17B2 (GeneID 3294),0.62,1.27,inactive
TAS1R1 (GeneID 80835),0.87,0.88,inactive
PPP4R3A (GeneID 55671),0.68,0.8,inactive
TBXAS1 (GeneID 6916),0.88,0.55,inactive
NSG1 (GeneID 27065),0.51,1.1,inactive
PAPOLA (GeneID 10914),0.45,1.34,inactive
VPREB3 (GeneID 29802),0.23,2.28,inactive
CCDC138 (GeneID 165055),0.84,0.62,inactive
GPR63 (GeneID 81491),0.38,0.48,active
PRSS35 (GeneID 167681),0.59,1.09,inactive
DIAPH1 (GeneID 1729),0.34,1.45,inactive
AFP (GeneID 174),0.15,0.76,inactive
EIF2B5 (GeneID 8893),0.76,0.75,inactive
COL26A1 (GeneID 136227),0.34,1.85,inactive
IL15 (GeneID 3600),0.74,0.64,inactive
TPK1 (GeneID 27010),0.31,1.88,inactive
ANKRD24 (GeneID 170961),1.23,0.72,inactive
LINC01973 (GeneID 400624),0.68,1.2,inactive
NCR1 (GeneID 9437),0.31,1.63,inactive
CRYZ (GeneID 1429),0.68,0.76,inactive
OR4N3P (GeneID 390539),0.67,1.19,inactive
FCRL4 (GeneID 83417),0.71,0.92,inactive
EDN3 (GeneID 1908),0.11,0.2,active
DERL3 (GeneID 91319),0.42,1.4,inactive
PAWR (GeneID 5074),0.64,0.75,inactive
PAF1 (GeneID 54623),0.77,0.84,inactive
TSSK1B (GeneID 83942),0.82,1.07,inactive
TSSK1B (GeneID 83942),0.53,1.05,inactive
DUSP6 (GeneID 1848),1.2,0.74,inactive
FBXO3 (GeneID 26273),0.47,0.62,active
EPB41L1 (GeneID 2036),0.3,1.12,inactive
SCN9A (GeneID 6335),0.7,0.26,inactive
THEM5 (GeneID 284486),0.49,0.72,inactive
ERBIN (GeneID 55914),0.38,0.72,inactive
IZUMO2 (GeneID 126123),0.63,0.96,inactive
PHOSPHO1 (GeneID 162466),0.67,0.9,inactive
ACSL3 (GeneID 2181),0.67,0.73,inactive
PAICS (GeneID 10606),0.71,1.33,inactive
TIGIT (GeneID 201633),0.99,0.54,inactive
PRR14 (GeneID 78994),0.25,2.06,inactive
AAR2 (GeneID 25980),0.42,1.26,inactive
CYP27C1 (GeneID 339761),0.53,0.82,inactive
INO80C (GeneID 125476),0.55,1.32,inactive
CCDC140 (GeneID 151278),0.61,1.7,inactive
ZFYVE1 (GeneID 53349),0.86,0.33,inactive
CCDC97 (GeneID 90324),0.94,1.21,inactive
